# Reference: patent EP4644389A1, “PRMT5-MTA INHIBITOR” (Suzhou Puhe Biopharma Co., Ltd., priority 2022, dated 2024)
# Assay: Pharmacokinetic evaluation in mice (IV and oral)
# Conditions: mouse, in vivo, CD1 female mice
# Description: CD1 female mice were used as test animals, and the compounds were administered orally or intravenously (oral dose of 10 mg/kg; intravenous dose of 2 mg/kg).
# Experiment protocol: Three mice per group for oral administration, and three mice per group for intravenous administration. Oral: Plasma samples were collected before administration (0 h) and at 0.25, 0.5, 1, 2, 4, 8, and 24 hours post-administration; Intravenous: Plasma samples were collected before administration (0 h) and at 0.083, 0.25, 0.5, 1, 2, 4, 8, and 24 hours post-administration. The plasma drug concentrations in mice after oral and intravenous administration were determined using LC/MS/MS, and the collected data were analyzed using AB Sciex QTRAP 6500 software.
smiles,measurement,setting,value
"Cc1cc2cc(C(=O)N(Cc3ccc(C(F)(F)F)cn3)[C@H](C)c3ncccn3)ccc2nc1N [AM9747, reference compound]",bioavailability,PO (10 mg/kg) vs IV (2 mg/kg),61%
same,Cmax,"PO (10 mg/kg), plasma",1.06 µg/mL
same,Tmax,"PO (10 mg/kg), plasma",15 min
